Data: the supplement of paper PMC10849652
Some of the results follow.

Protein sequences, listed by entry. Tags and fused reporters are not part of them. Lines headed by an entry give the natural chain unless they say otherwise; changes in a name come on top.
UniProt Q9NP73: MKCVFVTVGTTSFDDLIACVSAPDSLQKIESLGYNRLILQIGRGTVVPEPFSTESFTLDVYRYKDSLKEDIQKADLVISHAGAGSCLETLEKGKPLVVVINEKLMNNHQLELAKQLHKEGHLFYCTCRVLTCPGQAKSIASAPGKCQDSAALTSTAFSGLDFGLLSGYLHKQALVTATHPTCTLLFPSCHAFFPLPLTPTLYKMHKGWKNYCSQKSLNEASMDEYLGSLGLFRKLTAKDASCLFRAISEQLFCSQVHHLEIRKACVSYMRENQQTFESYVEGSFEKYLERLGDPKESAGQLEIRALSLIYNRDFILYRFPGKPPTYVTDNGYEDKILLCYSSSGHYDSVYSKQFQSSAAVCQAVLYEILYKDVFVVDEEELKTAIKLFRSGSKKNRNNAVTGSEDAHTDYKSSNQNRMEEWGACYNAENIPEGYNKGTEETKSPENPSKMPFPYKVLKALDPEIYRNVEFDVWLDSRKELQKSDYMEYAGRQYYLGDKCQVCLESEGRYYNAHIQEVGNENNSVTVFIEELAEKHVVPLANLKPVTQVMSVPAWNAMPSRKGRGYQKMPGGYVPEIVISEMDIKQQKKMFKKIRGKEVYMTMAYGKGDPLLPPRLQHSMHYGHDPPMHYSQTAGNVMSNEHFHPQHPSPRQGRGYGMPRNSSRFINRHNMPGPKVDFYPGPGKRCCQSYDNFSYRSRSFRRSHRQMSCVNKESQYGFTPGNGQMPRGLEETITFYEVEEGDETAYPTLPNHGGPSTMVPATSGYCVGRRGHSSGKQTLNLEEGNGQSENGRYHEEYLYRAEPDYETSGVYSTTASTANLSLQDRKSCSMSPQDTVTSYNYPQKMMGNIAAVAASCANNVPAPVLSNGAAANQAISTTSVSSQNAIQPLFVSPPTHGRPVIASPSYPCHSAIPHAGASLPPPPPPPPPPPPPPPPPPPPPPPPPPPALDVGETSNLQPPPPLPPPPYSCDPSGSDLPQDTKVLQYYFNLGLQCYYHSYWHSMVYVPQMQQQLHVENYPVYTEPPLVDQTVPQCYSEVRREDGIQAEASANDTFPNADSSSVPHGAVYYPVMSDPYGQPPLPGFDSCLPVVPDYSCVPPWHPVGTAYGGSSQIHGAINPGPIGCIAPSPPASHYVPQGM
UniProt Q9H553: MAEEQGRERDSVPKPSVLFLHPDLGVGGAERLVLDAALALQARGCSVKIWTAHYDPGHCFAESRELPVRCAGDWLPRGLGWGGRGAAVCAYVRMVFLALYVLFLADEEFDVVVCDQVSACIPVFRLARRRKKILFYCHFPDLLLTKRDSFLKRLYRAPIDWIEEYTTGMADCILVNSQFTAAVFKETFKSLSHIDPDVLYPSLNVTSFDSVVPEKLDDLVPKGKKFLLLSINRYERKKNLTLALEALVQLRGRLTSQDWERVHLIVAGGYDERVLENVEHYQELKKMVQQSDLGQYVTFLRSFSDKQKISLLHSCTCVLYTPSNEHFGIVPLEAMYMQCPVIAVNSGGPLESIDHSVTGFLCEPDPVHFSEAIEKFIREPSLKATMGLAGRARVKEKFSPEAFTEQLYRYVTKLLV
UniProt Q96BJ3: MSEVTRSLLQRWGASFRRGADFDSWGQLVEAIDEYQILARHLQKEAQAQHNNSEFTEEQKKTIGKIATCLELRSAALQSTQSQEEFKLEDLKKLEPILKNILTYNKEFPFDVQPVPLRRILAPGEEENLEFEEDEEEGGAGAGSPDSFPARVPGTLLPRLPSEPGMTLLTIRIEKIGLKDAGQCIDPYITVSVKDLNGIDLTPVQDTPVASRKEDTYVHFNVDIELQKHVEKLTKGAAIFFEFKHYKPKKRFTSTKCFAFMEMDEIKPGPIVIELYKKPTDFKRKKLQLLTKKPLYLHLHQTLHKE
UniProt Q9UIJ7: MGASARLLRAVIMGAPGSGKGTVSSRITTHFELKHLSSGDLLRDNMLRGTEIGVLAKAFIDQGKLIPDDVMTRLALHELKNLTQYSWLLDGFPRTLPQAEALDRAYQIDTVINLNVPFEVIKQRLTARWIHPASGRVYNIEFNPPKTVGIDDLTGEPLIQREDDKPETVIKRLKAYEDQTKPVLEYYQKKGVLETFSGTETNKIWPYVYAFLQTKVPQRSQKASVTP
UniProt Q9BVK2: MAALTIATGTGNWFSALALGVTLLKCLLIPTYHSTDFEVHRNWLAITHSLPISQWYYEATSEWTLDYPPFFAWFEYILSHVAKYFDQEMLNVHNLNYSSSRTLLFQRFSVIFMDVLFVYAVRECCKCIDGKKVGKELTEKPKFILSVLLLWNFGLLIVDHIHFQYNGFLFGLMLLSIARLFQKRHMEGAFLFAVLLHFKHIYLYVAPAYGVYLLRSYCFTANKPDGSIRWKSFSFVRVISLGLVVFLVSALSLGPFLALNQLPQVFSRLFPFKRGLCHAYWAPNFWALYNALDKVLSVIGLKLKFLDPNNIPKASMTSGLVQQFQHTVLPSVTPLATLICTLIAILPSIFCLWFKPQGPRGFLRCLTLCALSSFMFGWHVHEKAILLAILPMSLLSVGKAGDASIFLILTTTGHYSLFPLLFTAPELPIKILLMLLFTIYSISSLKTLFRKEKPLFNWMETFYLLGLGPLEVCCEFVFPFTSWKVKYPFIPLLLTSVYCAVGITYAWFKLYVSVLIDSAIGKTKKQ
UniProt Q12904: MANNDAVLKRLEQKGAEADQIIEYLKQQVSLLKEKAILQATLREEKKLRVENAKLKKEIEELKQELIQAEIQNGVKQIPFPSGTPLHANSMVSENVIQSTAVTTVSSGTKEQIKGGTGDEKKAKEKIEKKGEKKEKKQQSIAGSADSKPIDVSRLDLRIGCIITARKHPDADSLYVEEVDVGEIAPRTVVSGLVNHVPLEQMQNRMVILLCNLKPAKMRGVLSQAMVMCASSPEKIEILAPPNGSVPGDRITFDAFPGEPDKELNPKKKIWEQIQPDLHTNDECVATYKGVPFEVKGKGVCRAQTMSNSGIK
UniProt P52594: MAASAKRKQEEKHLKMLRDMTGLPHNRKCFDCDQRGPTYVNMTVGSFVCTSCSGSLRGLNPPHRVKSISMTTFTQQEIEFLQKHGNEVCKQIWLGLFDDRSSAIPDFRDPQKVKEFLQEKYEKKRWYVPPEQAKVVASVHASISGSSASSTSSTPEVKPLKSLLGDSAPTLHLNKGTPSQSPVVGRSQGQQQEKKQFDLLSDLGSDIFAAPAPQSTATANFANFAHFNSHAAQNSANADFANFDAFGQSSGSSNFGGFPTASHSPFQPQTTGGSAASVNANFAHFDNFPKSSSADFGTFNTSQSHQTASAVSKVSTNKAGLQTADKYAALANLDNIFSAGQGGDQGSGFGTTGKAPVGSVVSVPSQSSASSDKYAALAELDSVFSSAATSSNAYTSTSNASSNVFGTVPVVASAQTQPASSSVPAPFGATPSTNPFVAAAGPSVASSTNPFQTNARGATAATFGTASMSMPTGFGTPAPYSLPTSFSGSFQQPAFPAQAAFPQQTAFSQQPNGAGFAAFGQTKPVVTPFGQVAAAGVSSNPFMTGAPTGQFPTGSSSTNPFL
UniProt Q9UKV8, whole entry, looked up: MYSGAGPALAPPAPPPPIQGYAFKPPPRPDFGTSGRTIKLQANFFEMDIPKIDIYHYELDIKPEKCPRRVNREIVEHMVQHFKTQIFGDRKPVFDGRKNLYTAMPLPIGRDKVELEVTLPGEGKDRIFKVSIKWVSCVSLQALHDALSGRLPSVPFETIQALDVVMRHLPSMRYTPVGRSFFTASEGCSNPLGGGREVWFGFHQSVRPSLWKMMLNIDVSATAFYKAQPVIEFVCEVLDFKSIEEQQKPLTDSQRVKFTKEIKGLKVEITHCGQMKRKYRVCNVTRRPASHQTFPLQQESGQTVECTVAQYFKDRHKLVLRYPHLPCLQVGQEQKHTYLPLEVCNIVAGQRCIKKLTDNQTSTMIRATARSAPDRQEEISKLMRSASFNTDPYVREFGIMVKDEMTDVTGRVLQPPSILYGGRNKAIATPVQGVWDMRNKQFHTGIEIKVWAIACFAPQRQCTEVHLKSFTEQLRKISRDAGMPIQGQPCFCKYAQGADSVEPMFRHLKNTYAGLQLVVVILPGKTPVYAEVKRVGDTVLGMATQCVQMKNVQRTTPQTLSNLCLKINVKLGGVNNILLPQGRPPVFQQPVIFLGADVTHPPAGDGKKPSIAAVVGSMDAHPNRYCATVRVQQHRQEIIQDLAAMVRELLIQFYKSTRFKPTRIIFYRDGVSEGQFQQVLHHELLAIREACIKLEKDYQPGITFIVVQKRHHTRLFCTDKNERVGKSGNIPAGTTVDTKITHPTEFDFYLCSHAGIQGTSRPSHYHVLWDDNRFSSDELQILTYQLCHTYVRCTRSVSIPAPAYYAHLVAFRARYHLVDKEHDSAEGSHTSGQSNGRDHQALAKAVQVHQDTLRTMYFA
UniProt Q01432: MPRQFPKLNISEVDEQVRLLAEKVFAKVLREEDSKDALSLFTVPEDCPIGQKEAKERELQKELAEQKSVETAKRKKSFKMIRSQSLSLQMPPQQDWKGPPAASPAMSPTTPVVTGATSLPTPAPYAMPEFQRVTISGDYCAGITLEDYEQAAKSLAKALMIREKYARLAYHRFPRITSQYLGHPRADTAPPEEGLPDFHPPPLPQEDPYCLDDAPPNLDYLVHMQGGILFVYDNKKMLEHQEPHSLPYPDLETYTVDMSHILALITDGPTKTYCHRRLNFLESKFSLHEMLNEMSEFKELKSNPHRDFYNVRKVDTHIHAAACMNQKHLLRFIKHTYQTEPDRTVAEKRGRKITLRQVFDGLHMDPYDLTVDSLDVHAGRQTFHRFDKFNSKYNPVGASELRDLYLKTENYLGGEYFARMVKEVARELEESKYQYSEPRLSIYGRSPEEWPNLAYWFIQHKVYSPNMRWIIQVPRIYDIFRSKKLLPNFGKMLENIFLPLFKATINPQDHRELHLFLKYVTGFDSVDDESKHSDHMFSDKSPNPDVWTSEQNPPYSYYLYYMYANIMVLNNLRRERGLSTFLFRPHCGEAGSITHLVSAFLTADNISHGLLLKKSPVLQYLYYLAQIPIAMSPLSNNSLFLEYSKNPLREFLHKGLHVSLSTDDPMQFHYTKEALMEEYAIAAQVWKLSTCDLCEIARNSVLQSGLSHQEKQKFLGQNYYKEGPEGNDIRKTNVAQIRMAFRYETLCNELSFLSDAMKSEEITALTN
UniProt P23526: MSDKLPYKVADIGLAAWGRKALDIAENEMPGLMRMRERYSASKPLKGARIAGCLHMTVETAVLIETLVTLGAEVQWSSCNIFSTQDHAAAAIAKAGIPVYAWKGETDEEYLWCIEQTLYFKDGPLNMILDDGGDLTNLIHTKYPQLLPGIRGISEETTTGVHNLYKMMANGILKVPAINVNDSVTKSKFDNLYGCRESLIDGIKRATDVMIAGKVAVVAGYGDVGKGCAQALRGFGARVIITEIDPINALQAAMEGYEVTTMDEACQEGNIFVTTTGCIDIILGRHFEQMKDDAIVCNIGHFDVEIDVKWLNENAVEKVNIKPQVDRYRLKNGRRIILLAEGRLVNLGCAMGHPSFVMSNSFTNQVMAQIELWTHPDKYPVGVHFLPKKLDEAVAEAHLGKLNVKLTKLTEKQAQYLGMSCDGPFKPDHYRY
UniProt P09972: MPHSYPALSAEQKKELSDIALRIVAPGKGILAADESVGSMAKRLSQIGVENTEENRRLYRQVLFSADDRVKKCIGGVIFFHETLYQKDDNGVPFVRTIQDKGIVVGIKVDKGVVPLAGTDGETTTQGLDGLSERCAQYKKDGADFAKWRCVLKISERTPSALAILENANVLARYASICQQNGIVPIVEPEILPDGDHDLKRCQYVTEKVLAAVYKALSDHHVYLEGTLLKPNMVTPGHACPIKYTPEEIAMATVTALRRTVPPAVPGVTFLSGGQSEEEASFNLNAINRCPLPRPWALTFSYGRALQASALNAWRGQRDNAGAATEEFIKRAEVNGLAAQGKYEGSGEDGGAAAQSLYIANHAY
UniProt Q53H12: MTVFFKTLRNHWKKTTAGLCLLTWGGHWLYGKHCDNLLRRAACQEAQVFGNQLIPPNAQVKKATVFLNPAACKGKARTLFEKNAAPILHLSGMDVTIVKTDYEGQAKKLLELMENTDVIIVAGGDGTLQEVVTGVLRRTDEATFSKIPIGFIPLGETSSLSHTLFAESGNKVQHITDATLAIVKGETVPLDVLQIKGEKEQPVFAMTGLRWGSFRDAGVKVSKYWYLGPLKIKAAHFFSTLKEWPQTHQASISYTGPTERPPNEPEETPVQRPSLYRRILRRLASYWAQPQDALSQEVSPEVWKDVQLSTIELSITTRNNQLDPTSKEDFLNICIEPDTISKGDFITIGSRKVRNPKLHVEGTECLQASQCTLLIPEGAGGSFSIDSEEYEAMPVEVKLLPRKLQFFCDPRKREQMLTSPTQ

Experiments:
Assay in all cases: log2 fold change, soluble protein after heating vs DMSO (PISA); higher = thermal stabilisation; K562 cells, 10 uM, 30 min; active = over 0.2 and 3.5 SD of the protein, either way, in both replicates (recomputed)
[1] = compound: CS(=O)(=O)c1ccc(-c2cnc(N)c(C(=O)Nc3ccccc3)n2)cc1
In short: (§1)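 Thermal stability values are relative to control samples and come from duplicates. They are expressed as log2 fold changes. For measurement, K562 cells (2×10^6 cells/mL) received 10 μM compound for 30 min, and aliquots were heated for 3 min over 48°C-58°C, pooled, and extracted at 4°C in PBS with 0.5% NP-40. Soluble protein, the supernatant after 21,000xg for 90 min, was quantified by TMTpro 16plex LC-MS/MS with equalised channel sums.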

crizotinib = compound: C[C@@H](Oc1cc(-c2cnn(C3CCNCC3)c2)cnc1N)c1c(Cl)ccc(F)c1Cl [crizotinib]
In short: as §1

[2] = compound: C[C@@H]1COCCN1C2=NC(=NC(=C2)C3(CC3)S(=O)(=O)C)C4=C5C=CNC5=CC=C4
In short: as §1

[3] = compound: C[C@H](C1=CC=C(C=C1)C(=O)NC2=C3C=CNC3=NC=C2)N
In short: as §1

duvelisib = compound: C[C@H](Nc1ncnc2nc[nH]c12)c1cc2cccc(Cl)c2c(=O)n1-c1ccccc1 [duvelisib]
In short: as §1

gandotinib = compound: Cc1cc(Nc2cc(CN3CCOCC3)c3nc(C)c(Cc4ccc(Cl)cc4F)n3n2)n[nH]1 [gandotinib]
In short: as §1

tozasertib = compound: Cc1cc(Nc2cc(N3CCN(C)CC3)nc(Sc3ccc(NC(=O)C4CC4)cc3)n2)n[nH]1 [tozasertib]
In short: as §1

[4] = compound: Cc1cc(SCc2sc(-c3ccc(C(F)(F)F)cc3)nc2C)ccc1OCC(=O)O
In short: as §1

doramapimod = compound: Cc1ccc(-n2nc(C(C)(C)C)cc2NC(=O)Nc2ccc(OCCN3CCOCC3)c3ccccc23)cc1 [doramapimod]
In short: as §1

ispinesib = compound: Cc1ccc(C(=O)N(CCCN)[C@@H](c2nc3cc(Cl)ccc3c(=O)n2Cc2ccccc2)C(C)C)cc1 [ispinesib]
In short: as §1

Measured: log2 fold change

AK2 isoform 2 (UniProt P54819)
inactive: [1] 0.005 | crizotinib 0.037 | [2] 0.027 | [3] 0.015 | duvelisib 0.011 | gandotinib 0.009 | tozasertib -0.023 | [4] -0.037 | doramapimod 0 | ispinesib 0.004

ALKBH8 isoform 4 (UniProt Q96BT7)
inactive: [1] -0.059 | crizotinib 0.069 | [2] 0.143 | [3] 0.005 | duvelisib -0.067 | gandotinib -0.032 | [4] 0.243 | doramapimod 0.081

ALG13 (UniProt Q9NP73)
inactive: [1] -0.014 | crizotinib 0.035 | [2] 0.174 | [3] -0.023 | duvelisib 0.05 | gandotinib -0.081 | tozasertib 0.033 | [4] 0.053 | doramapimod 0.006 | ispinesib 0.042

AK4 (UniProt P27144)
inactive: [1] 0.017 | crizotinib 0.088 | [2] 0.153 | [3] -0.071 | duvelisib 0.065 | gandotinib -0.039 | tozasertib -0.018 | [4] 0.012 | doramapimod 0.003 | ispinesib 0.041

ANAPC10 (UniProt Q9UM13)
inactive: [1] -0.027 | crizotinib -0.064 | [2] -0.093 | [3] 0.118 | duvelisib 0.041 | gandotinib 0.054 | tozasertib 0.027 | [4] 0.004 | doramapimod -0.019 | ispinesib -0.036

ALG2 (UniProt Q9H553)
inactive: [1] 0.05 | crizotinib 0.01 | [2] 0.071 | [3] -0.01 | duvelisib 0.027 | gandotinib 0.016 | tozasertib -0.047 | [4] 0.011 | doramapimod -0.019 | ispinesib 0.011

AIDA (UniProt Q96BJ3)
inactive: [1] -0.051 | crizotinib 0.106 | [2] -0.004 | [3] -0.142 | duvelisib 0.042 | gandotinib -0.054 | tozasertib 0.021 | [4] 0.063 | doramapimod 0.011 | ispinesib -0.01

AK3 (UniProt Q9UIJ7)
inactive: [1] 0.029 | crizotinib 0.055 | [2] 0.057 | [3] -0.033 | duvelisib 0.04 | gandotinib -0.046 | tozasertib 0.007 | [4] -0.032 | doramapimod -0.021 | ispinesib 0.038

ALDOC (UniProt J3QKP5)
inactive: [1] 0.275 | crizotinib 0.106 | [2] -0.164 | [3] 0.394 | duvelisib 0 | gandotinib 0.258 | tozasertib -0.115 | [4] -0.348 | doramapimod -0.259 | ispinesib -0.537

ALG8 (UniProt Q9BVK2)
inactive: [1] 0.039 | crizotinib -0.055 | [2] 0.1 | [3] -0.015 | duvelisib -0.028 | gandotinib -0.046 | tozasertib 0.022 | [4] 0.034 | doramapimod -0.002 | ispinesib -0.128

AIMP1 isoform 2 (UniProt Q12904)
inactive: [1] -0.004 | crizotinib -0.165 | [2] -0.419 | [3] 0.498 | duvelisib -0.1 | gandotinib 0.136 | tozasertib 0.027 | [4] 0.093 | doramapimod 0.329 | ispinesib -0.302

AFP (UniProt P02771)
inactive: [1] -0.249 | crizotinib -0.021 | [2] -0.136 | [3] 0.231 | duvelisib -0.39 | gandotinib 0.012 | tozasertib -0.06 | [4] -0.235 | doramapimod 0.207 | ispinesib -0.032

AKT1S1 isoform 3 (UniProt Q96B36)
inactive: [1] 0.031 | crizotinib 0.066 | [2] 0.058 | [3] 0.008 | duvelisib 0.16 | gandotinib 0.097 | tozasertib 0.008 | [4] 0 | doramapimod -0.005 | ispinesib 0.122

ALG1 (UniProt Q9BT22)
inactive: [1] 0.032 | crizotinib 0.081 | [2] -0.005 | [3] -0.037 | duvelisib -0.022 | gandotinib -0.082 | tozasertib 0.012 | [4] 0.021 | doramapimod 0.02 | ispinesib 0.1

AK1 (UniProt P00568)
inactive: [1] 0.06 | crizotinib -0.038 | [2] 0.131 | [3] 0.012 | duvelisib 0.068 | gandotinib 0.003 | tozasertib -0.029 | [4] 0.032 | doramapimod -0.06 | ispinesib 0.077

AGFG1 isoform 4 (UniProt P52594)
inactive: [1] -0.022 | crizotinib 0.066 | [2] 0.117 | [3] -0.082 | duvelisib 0.013 | gandotinib -0.016 | tozasertib 0.061 | [4] 0.003 | doramapimod -0.009 | ispinesib 0.051

AKR7A2 (UniProt O43488)
inactive: [1] -0.039 | crizotinib 0.011 | [2] 0.126 | [3] -0.182 | duvelisib -0.028 | gandotinib -0.032 | tozasertib -0.009 | [4] 0.052 | doramapimod -0.049 | ispinesib 0.011

ALYREF (UniProt Q86V81)
inactive: [1] -0.029 | crizotinib 0.068 | [2] -0.376 | [3] 0.318 | duvelisib -0.095 | gandotinib 0.272 | tozasertib 0.037 | [4] -0.043 | doramapimod 0.174 | ispinesib -0.031

ALDOA isoform 2 (UniProt P04075)
inactive: [1] -0.025 | crizotinib -0.012 | [2] -0.004 | [3] -0.088 | duvelisib 0.004 | gandotinib 0.01 | tozasertib -0.017 | [4] -0.031 | doramapimod -0.007 | ispinesib 0.02

AGO2 (UniProt Q9UKV8)
inactive: [1] -0.073 | crizotinib 0.096 | [2] -0.034 | [3] 0.033 | duvelisib 0.028 | gandotinib 0.064 | tozasertib -0.001 | [4] 0.037 | doramapimod -0.056 | ispinesib 0.036

Copied from the entries so far (two entries):
AGFG1 isoform 4 (UniProt P52594)
inactive: [1] -0.022 | crizotinib 0.066 | [2] 0.117 | [3] -0.082 | duvelisib 0.013 | gandotinib -0.016 | tozasertib 0.061 | [4] 0.003 | doramapimod -0.009 | ispinesib 0.051

AKR7A2 (UniProt O43488)
inactive: [1] -0.039 | crizotinib 0.011 | [2] 0.126 | [3] -0.182 | duvelisib -0.028 | gandotinib -0.032 | tozasertib -0.009 | [4] 0.052 | doramapimod -0.049 | ispinesib 0.011

(next part)

AMPD3 isoform 4 (UniProt Q01432)
inactive: [1] 0.064 | crizotinib -0.065 | [2] 0.156 | [3] -0.051 | duvelisib 0.065 | gandotinib -0.057 | tozasertib -0.01 | [4] -0.002 | doramapimod 0.002 | ispinesib 0.002

ALKBH2 (UniProt Q6NS38)
inactive: [1] -0.163 | crizotinib 0.032 | [2] -0.298 | [3] 0.192 | duvelisib -0.056 | gandotinib 0.163 | tozasertib -0.064 | [4] 0.068 | doramapimod 0.179 | ispinesib -0.173

ADSL (UniProt P30566)
inactive: [1] 0.005 | crizotinib 0.037 | [2] -0.014 | [3] -0.053 | duvelisib 0.012 | gandotinib 0.019 | tozasertib -0.011 | [4] -0.04 | doramapimod -0.044 | ispinesib 0.04

AHCY (UniProt P23526)
inactive: [1] 0.006 | crizotinib 0.023 | [2] 0.017 | [3] -0.041 | duvelisib 0.01 | gandotinib 0.041 | tozasertib -0.028 | [4] -0.012 | doramapimod -0.025 | ispinesib 0.057

AIFM1 (UniProt O95831)
inactive: [1] -0.003 | crizotinib 0.069 | [2] 0.002 | [3] -0.056 | duvelisib 0.026 | gandotinib -0.036 | tozasertib -0.009 | [4] -0.039 | doramapimod -0.019 | ispinesib 0.026

ALDOC (UniProt P09972)
inactive: [1] -0.002 | crizotinib 0.003 | [2] 0.024 | [3] -0.093 | duvelisib -0.021 | gandotinib 0.05 | tozasertib -0.021 | [4] -0.029 | doramapimod -0.022 | ispinesib 0.008

AGO3 (UniProt Q9H9G7)
inactive: [1] -0.023 | crizotinib 0.031 | [2] -0.135 | [3] 0.279 | duvelisib -0.093 | gandotinib 0.193 | tozasertib 0.057 | [4] 0.181 | doramapimod 0.01 | ispinesib -0.033

AGL (UniProt P35573)
inactive: [1] -0.021 | crizotinib -0.114 | [2] -0.269 | [3] 0.226 | duvelisib -0.156 | gandotinib 0.101 | tozasertib 0.012 | [4] 0.093 | doramapimod 0.101 | ispinesib -0.166

AGK (UniProt Q53H12)
inactive: [1] 0.027 | crizotinib -0.013 | [2] 0.08 | [3] -0.011 | duvelisib 0.008 | gandotinib 0.004 | tozasertib -0.034 | [4] -0.032 | doramapimod -0.005 | ispinesib -0.126

ALDH1L2 (UniProt Q3SY69)
inactive: [1] 0.072 | crizotinib -0.047 | [2] 0.092 | [3] 0.04 | duvelisib 0.072 | gandotinib -0.06 | tozasertib 0.023 | [4] 0.059 | doramapimod 0.085 | ispinesib -0.041
